# ± gives the standard error. Many of these values have a large error.
# B1: glmS ribozyme (parent)
# chain: AUAAAAGCGCCAGAACUACAGAAAUGUAGUUGACGAGGAGGAGGUUUAUCGAAUUUUCGGCGGAUGCCUCCAAA
# Variants of: B1
# Test: kcat; higher = faster cleavage; RNA array
# Conditions: with glucosamine-6-phosphate
# Outline: (§1)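 Glucosamine-6-phosphate in HEPES/KCl/Mg(OAc)2 buffer, at 40 μM to 10 mM, was flowed over barcoded ribozyme variants transcribed in situ by E. coli RNA polymerase on sequenced MiSeq chips. Tracking was through a hybridised Cy3 probe at 37 °C. kobs, kcat and KM came from exponential decay fits and weighted Michaelis–Menten fits of normalised per-tile medians.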
row,Variant,kcat [s⁻¹]
1,G40U U65G,0.00373 ± 0.0025
2,G41A A48G,< 1e-05
3,G41A A64U,1.18e-05 ± 5.9e-06
4,A42G U55A,0.0495 ± 0.04
5,G43A U47C,1.32e-05 ± 6.8e-06
6,G44U U47C,5.22e-05 ± 2.9e-05
7,U45A C70G,0.000743 ± 0.0004
8,U45G C70U,0.00681 ± 0.0021
9,U47G U57G C61G C67U,4.79e-05 ± 3.5e-05
10,A48G U54G,0.000141 ± 9.6e-06
11,A48U U54G C70U,0.000549 ± 9.5e-05
12,U49A C50G C71U,1.88e-05 ± 4.4e-06
13,U49A C70A,1.28e-05 ± 6.6e-06
14,U49G C61G,< 1e-05
15,C50A C61U C70U,3.88e-05 ± 1.2e-05
16,C50G A64G,3.89e-05 ± 2.5e-05
17,A52C U57G U69G,3.86e-05 ± 2.3e-05

# Retrieved one by one from above:
row,Variant,kcat [s⁻¹]
9,U47G U57G C61G C67U,4.79e-05 ± 3.5e-05
4,A42G U55A,0.0495 ± 0.04
12,U49A C50G C71U,1.88e-05 ± 4.4e-06
5,G43A U47C,1.32e-05 ± 6.8e-06
17,A52C U57G U69G,3.86e-05 ± 2.3e-05
13,U49A C70A,1.28e-05 ± 6.6e-06
2,G41A A48G,< 1e-05

# Next records follow.

row,Variant,kcat [s⁻¹]
1,A53U C71U,0.04 ± 0.023
2,A53U U56C,0.00641 ± 0.0039
3,A53U U69C,0.00307 ± 0.0027
4,U54C U69A,0.000112 ± 7.5e-06
5,U54G C67U,0.00298 ± 0.0018
6,U55A C67A,0.00614 ± 0.0041
7,U55A C71A,0.0116 ± 0.0077
8,U55A C71U,0.0122 ± 0.0081
9,U55G G59C,1.2e-05 ± 2.5e-06
10,U57A C71U,0.000912 ± 0.00051
11,U57C C68U,6e-05 ± 5.6e-07
12,C58G A64G U65A G66U C67G U69C,2.61e-05 ± 2e-05
13,G59C C61G,< 1e-05
14,G60C C70A,< 1e-05
15,C61A C67U,4.47e-05 ± 1.3e-05
16,G62U C67G C68U,1.17e-05 ± 4.6e-06
17,G62U C71U,< 1e-05

# Variants of: B1
# Test: KM; higher = weaker cofactor use; RNA array
# Conditions: with glucosamine-6-phosphate
# Outline: as §1
row,Variant,KM [µM]
1,G40U U65G,8490 ± 8200
2,A42G U55A,2030 ± 1900
3,G44U U47C,20700 ± 17000
4,U45A C70G,1100 ± 980
5,U45G C70U,562 ± 260
6,A48G U54G,761 ± 180
7,A48U U54G C70U,1760 ± 550
8,A53U C71U,3500 ± 2300
9,A53U U56C,7740 ± 5900
10,U54C U69A,82 ± 22
11,U54G C67U,417 ± 370
12,U55A C71A,1420 ± 1200
13,U55A C71U,470 ± 440
14,U57A C71U,13700 ± 9500
15,U57C C68U,1210 ± 64
16,A6C U65A,3180 ± 190
17,A6U A12C,5730 ± 4100
18,A6U A52G,2490 ± 2400
19,A6U U31A,1630 ± 1200
20,C8A C61U G66A,17.8 ± 11
21,C8G A12G,32.5 ± 28
22,G9A,5140 ± 880
23,G9A G13C U30G G63U U69G,50.4 ± 49
24,G9U C71U,403 ± 220

row,Variant,KM [µM]
1,C10A G51U G63C,731 ± 360
2,C10U C71U,1800 ± 1000
3,C10U U47C,98.5 ± 57
4,C11A C34G G60U A64G,65.6 ± 55
5,C11A C68G,13.3 ± 6.9
6,C11G A12C,3940 ± 2000
7,C11U A14U,2130 ± 810
8,C11U A53C,3780 ± 1300
9,C11U U45C,1980 ± 1300
10,C11U U47C,1150 ± 290
11,A12C A14C,6190 ± 2800
12,A12C A15U,1430 ± 600
13,A12C G29A,2420 ± 1400
14,A12G A42C,26 ± 24
15,A12G U45G,5260 ± 300
16,A12U,1340 ± 230
17,A12U C50A,1660 ± 130
18,A12U G29A A52U,5430 ± 2900
19,A12U G40C,1420 ± 310
20,A12U G41U,232 ± 190
21,A12U U46C,2700 ± 520
22,G13A G32U,3170 ± 600
23,G13A U69C,3190 ± 2300

# Variants of: B1
# Test: self-cleavage kobs at 160 uM GlcN6P; higher = faster cleavage; RNA array
# Conditions: with glucosamine-6-phosphate
# Outline: as §1
row,Variant,self-cleavage kobs at 160 uM GlcN6P [s⁻¹]
1,G40U U65G,3.53e-05 ± 2.6e-05
2,A48G U54G,2.48e-05 ± 1.4e-05
3,U49A C50G C71U,2.28e-05 ± 2.1e-05
4,A12U G29A A52U,2.54e-05 ± 2.1e-05

# Variants of: B1
# Test: self-cleavage kobs at 40 uM GlcN6P; higher = faster cleavage; RNA array
# Conditions: with glucosamine-6-phosphate
# Outline: as §1
row,Variant,self-cleavage kobs at 40 uM GlcN6P [s⁻¹]
1,U47G U57G C61G C67U,4.11e-05 ± 2.4e-05
2,A48U U54G C70U,2.48e-05 ± 2.1e-05
3,C50G A64G,2.4e-05 ± 1.4e-05
4,C11U A14U,1.77e-05 ± 1.7e-05
5,C11U A53C,1.71e-05 ± 1.7e-05

# Variants of: B1
# Test: self-cleavage kobs at 10000 uM GlcN6P; higher = faster cleavage; RNA array
# Conditions: with glucosamine-6-phosphate
# Outline: as §1
row,Variant,self-cleavage kobs at 10000 uM GlcN6P [s⁻¹]
1,U47G U57G C61G C67U,2.75e-05 ± 1.9e-05

# Variants of: B1
# Test: self-cleavage kobs at 640 uM GlcN6P; higher = faster cleavage; RNA array
# Conditions: with glucosamine-6-phosphate
# Outline: as §1
row,Variant,self-cleavage kobs at 640 uM GlcN6P [s⁻¹]
1,C50A C61U C70U,4.21e-05 ± 2.8e-05
2,U57C C68U,2.13e-05 ± 1.4e-05
3,A6U A12C,1.63e-05 ± 1.5e-05
4,C10U C71U,1.6e-05 ± 8.8e-06

# Variants of: B1
# Test: self-cleavage kobs at 2500 uM GlcN6P; higher = faster cleavage; RNA array
# Conditions: with glucosamine-6-phosphate
# Outline: as §1
row,Variant,self-cleavage kobs at 2500 uM GlcN6P [s⁻¹]
1,C50A C61U C70U,3.86e-05 ± 3e-05
2,C50G A64G,0.000664 ± 0.00033
3,A53U U69C,0.001 ± 0.00052
4,U55A C67A,0.00282 ± 0.0028
5,C58G A64G U65A G66U C67G U69C,1.71e-05 ± 1.2e-05
